Results taken from patent publication US8952149B2, “Tricyclic tetrahydroquinoline antibacterial agents” (Zoetis LLC, priority 2012, dated 2015).

Test system: S. pyogenes 02C0203
Test: AUC/MIC ratios required for efficacy (PK-PD)
Format: in vivo, mice
Conditions: last column of Table 4, AUC/MIC ratios required for efficacy
Experimental: In this example, the plasma concentrations of selected compounds were determined in mice that were infected with S. pyogenes 02C0203 at an oral dose of 100 mg/kg^4. Plasma samples were assayed for selected compounds using LC/MS/MS with multiple reaction monitoring. Free fractions were measured using equilibrium dialysis^5.
Separate groups of immunosuppressed mice were infected as above and orally dosed 2 hours post-infection with 100 mg/kg of the selected compounds. Thigh tissue samples (10% in PBS) and plasma were collected at 0.5, 1, 2, 4, 8 and 24 hours post-dose (n=3) for quantitation of drug levels. Bacterial burden was quantitated in the thigh tissue samples from treated mice and from infected, untreated mice at each timepoint.

Row | Structure (SMILES) | fAUC
1 | CCc1coc(-c2cc3c(c(F)c2F)N2C[C@H](C)O[C@H](C)[C@H]2C2(C3)C(=O)NC(=O)NC2=O)n1 (racemic) [Example 9, (2S,4R,4aR)-8-(4-ethyloxazol-2-yl)-9,10-difluoro-2,4-dimethyl-2,4,4a,6-tetrahydro-1H,1′H-spiro[[1,4]oxazino[4,3-a]quinoline-5,5′-pyrimidine]-2′,4′,6′(3′H)-trione] | 4
2 | Cc1coc(-c2cc(F)c3c(c2)CC2(C(=O)NC(=O)NC2=O)[C@H]2[C@H](C)O[C@H](C)CN32)n1 (single isomer, unassigned) [Example 1] | 2
